# Data from publication PMC4177084 (Journal of Thyroid Research, 2014).
# Columns and labels:
# Experiment in all cases: Antiproliferation assay (WST-8)
# Assay type in all cases: cell-based
# Nthy-ori 3-1 cells = details: Homo sapiens, 72 h; Nthy-ori 3-1 (normal thyroid), antiproliferative, 3 days
# K1 cells = details: Homo sapiens, 72 h; K1 (DTC), antiproliferative, 3 days
# RO82-W-1 cells = details: Homo sapiens, 72 h; RO82-W-1 (DTC), antiproliferative, 3 days
# FTC-133 cells = details: Homo sapiens, 72 h; FTC-133 (DTC), antiproliferative, 3 days
# FTC-236 cells = details: Homo sapiens, 72 h; FTC-236 (DTC), antiproliferative, 3 days
# FTC-238 cells = details: Homo sapiens, 72 h; FTC-238 (DTC), antiproliferative, 3 days
smiles,measurement,setting,value
"Cc1ccc(NC(=O)c2ccc(CN3CCN(C)CC3)cc2)cc1Nc1nccc(-c2cccnc2)n1 [Glivec, imatinib]",IC50,Nthy-ori 3-1 cells,20 µM
same,IC50,K1 cells,21 µM
same,IC50,RO82-W-1 cells,21 µM
same,IC50,FTC-133 cells,23 µM
same,IC50,FTC-236 cells,> 30 µM
same,IC50,FTC-238 cells,24 µM
